Measured values as given in publication PMC5221825.
These are yes or no findings as the source states them, for the method shown. Some results given as binding are weak or reduced against the parent protein; the word gives no strength. Each block holds one binder with its values, some of them ahead of it.

How the values were obtained:
[1] = molecular target: T1, GRAIN YIELD, PLANT HEIGHT AND HEADING DATE 8 (Ghd8) (rice (Oryza sativa)), Q0J7P4; test: two-hybrid; GAL4 AD (pGADT7) and BD (pGBKT7) fusions in yeast (AH109, Y187), diploids after mating; growth on YSD lacking Leu, Trp and His with increasing 3AT; 6 days at 30°C; details: remark: other sources report otherwise
T1 chain: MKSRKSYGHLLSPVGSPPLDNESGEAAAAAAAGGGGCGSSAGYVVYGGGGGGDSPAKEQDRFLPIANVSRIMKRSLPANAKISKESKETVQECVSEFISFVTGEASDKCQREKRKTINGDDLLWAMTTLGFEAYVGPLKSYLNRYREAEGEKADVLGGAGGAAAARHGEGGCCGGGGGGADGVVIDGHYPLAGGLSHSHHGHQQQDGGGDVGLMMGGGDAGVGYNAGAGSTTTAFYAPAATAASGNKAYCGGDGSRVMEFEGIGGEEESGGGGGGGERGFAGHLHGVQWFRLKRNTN

[2] = molecular target: T1, GRAIN YIELD, PLANT HEIGHT AND HEADING …; test: yeast three-hybrid; BD-Ghd8 (pGBKT7), NF-YC subunit or nothing from pTFT1, AD fusion (pGADT7); growth on YSD lacking Leu, Trp, Ade and His with increasing 3AT; 6 days at 30°C; details: remark: other sources report otherwise
[3] = molecular target: T2, GRAIN YIELD, PLANT HEIGHT AND HEADING DATE 8 (Ghd8) (rice (Oryza sativa)) (UniProt Q0J7P4); test: as above
T2 sequence: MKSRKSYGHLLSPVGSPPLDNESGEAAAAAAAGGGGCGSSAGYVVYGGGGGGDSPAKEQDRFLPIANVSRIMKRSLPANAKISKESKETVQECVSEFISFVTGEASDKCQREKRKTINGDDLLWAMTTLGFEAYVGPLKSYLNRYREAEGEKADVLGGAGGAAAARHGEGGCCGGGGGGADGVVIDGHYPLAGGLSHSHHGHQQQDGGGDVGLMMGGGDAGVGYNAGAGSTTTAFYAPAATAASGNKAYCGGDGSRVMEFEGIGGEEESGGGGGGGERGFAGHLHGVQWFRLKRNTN

[4] = molecular target: T2, GRAIN YIELD, PLANT HEIGHT AND HEADING DATE 8 (Ghd8) (rice (Oryza sativa)); test: two-hybrid; GAL4 AD (pGADT7) and BD (pGBKT7) fusions in yeast (AH109, Y187), diploids after mating; growth on YSD lacking Leu, Trp and His with increasing 3AT; 6 days at 30°C

binding [1]: no binding | binding [2]: no binding
B1: HEADING DATE 1 (Hd1), Nipponbare allele (Hd1^NB), Q9FDX8 1-395 (protein)
chain: MNYNFGGNVFDQEVGVGGEGGGGGEGSGCPWARPCDGCRAAPSVVYCRADAAYLCASCDARVHAANRVASRHERVRVCEACERAPAALACRADAAALCVACDVQVHSANPLPAITIPATSVLAEAVVATATVLGDKDEEVDSWLLLSKDSDNNNNNNNNNDNDNNDNNNSNSSNNGMYFGEVDEYFDLVGYNSYYDNRIENNQDRQYGMHEQQEQQQQQQEMQKEFAEKEGSECVVPSQITMLSEQQHSGYGVVGADQAASMTAGVSAYTDSISNSISFSSMEAGIVPDSTVIDMPNSRILTPAGAINLFSGPSLQMSLHFSSMDREARVLRYREKKKARKFEKTIRYETRKAYAEARPRIKGRFAKRSDVQIEVDQMFSTAALSDGSYGTVPWF

binding [3]: no binding
B2: PSEUDO RESPONSE REGULATOR 37 (PRR37) (protein, UniProt Q0D3B6 1-742)
chain: MMGTAHHNQTAGSALGVGVGDANDAVPGAGGGGYSDPDGGPISGVQRPPQVCWERFIQKKTIKVLLVDSDDSTRQVVSALLRHCMYEVIPAENGQQAWTYLEDMQNSIDLVLTEVVMPGVSGISLLSRIMNHNICKNIPVIMMSSNDAMGTVFKCLSKGAVDFLVKPIRKNELKNLWQHVWRRCHSSSGSGSESGIQTQKCAKSKSGDESNNNNGSNDDDDDDGVIMGLNARDGSDNGSGTQAQSSWTKRAVEIDSPQAMSPDQLADPPDSTCAQVIHLKSDICSNRWLPCTSNKNSKKQKETNDDFKGKDLEIGSPRNLNTAYQSSPNERSIKPTDRRNEYPLQNNSKEAAMENLEESSVRAADLIGSMAKNMDAQQAARAANAPNCSSKVPEGKDKNRDNIMPSLELSLKRSRSTGDGANAIQEEQRNVLRRSDLSAFTRYHTPVASNQGGTGFMGSCSLHDNSSEAMKTDSAYNMKSNSDAAPIKQGSNGSSNNNDMGSTTKNVVTKPSTNKERVMSPSAVKANGHTSAFHPAQHWTSPANTTGKEKTDEVANNAAKRAQPGEVQSNLVQHPRPILHYVHFDVSRENGGSGAPQCGSSNVFDPPVEGHAANYGVNGSNSGSNNGSNGQNGSTTAVNAERPNMEIANGTINKSGPGGGNGSGSGSGNDMYLKRFTQREHRVAAVIKFRQKRKERNFGKKVRYQSRKRLAEQRPRVRGQFVRQAVQDQQQQGGGREAAADR

binding [4]: binds
B3: GRAIN YIELD, PLANT HEIGHT AND HEADING DATE 8 (Ghd8) (protein, UniProt Q0J7P4 1-297)
chain: MKSRKSYGHLLSPVGSPPLDNESGEAAAAAAAGGGGCGSSAGYVVYGGGGGGDSPAKEQDRFLPIANVSRIMKRSLPANAKISKESKETVQECVSEFISFVTGEASDKCQREKRKTINGDDLLWAMTTLGFEAYVGPLKSYLNRYREAEGEKADVLGGAGGAAAARHGEGGCCGGGGGGADGVVIDGHYPLAGGLSHSHHGHQQQDGGGDVGLMMGGGDAGVGYNAGAGSTTTAFYAPAATAASGNKAYCGGDGSRVMEFEGIGGEEESGGGGGGGERGFAGHLHGVQWFRLKRNTN
